Results as given in PubChem BioAssay AID1487 (National Center for Advancing Translational Sciences (NCATS), 2009).
The other results are listed elsewhere or left out. Further columns of the screen follow, without active or inactive calls. Compounds called inactive in the main read-out are mostly missing here. Words in brackets tell the shape of the fitted curve; partial curves, single points and poor fits give uncertain potencies.

Experiment: qHTS Assay for Modulators of Lamin A Splicing
Details: HeLa LMNA splicing GFP/RFP minigene ratio, 48 h
Summary of the method: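 S3 HeLa stable clones carrying a lamin A-EGFP splicing minigene plus DsRed2 were seeded at 600 cells/well in Opti-MEM with 2% FBS, pin-dosed and incubated 48 h at 37°C. Acumen cytometry (488 nm) gave the GFP/RFP total-intensity ratio.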

[1] = measured here: RFP viability control channel
[2] = measured here: GFP splicing reporter channel

## CC1(C)O[C@@H]2C[C@H]3[C@H]4C[C@H](F)C5=CC(=O)C=C[C@@]5(C)[C@@H]4[C@H](O)C[C@]3(C)[C@]2(C(=O)CO)O1
[1]
  AC50: 0.001 µM [rising, full curve, poor fit]

## S=C(NCc1ccc(Cl)cc1Cl)NC1CCCCC1
[2]
  AC50: 6.31 µM [rising, partial curve]
[1]
  AC50: 15.8 µM [rising, partial curve]

## CCOc1ccc([N+](=O)[O-])c(N)c1
[2]
  AC50: 0.355 µM [falling, partial curve, poor fit]
[1]
  AC50: 0.0562 µM [falling, full curve]

## CCC(C)Nc1nc(-c2ccc3c(c2)NC(=O)CO3)cs1 (stereo unspecified)
[2]
  AC50: 12.6 µM [rising, single point]
[1]
  AC50: 14.1 µM [rising, single point]

## Cc1ccc(S(=O)(=O)N2CCCCC2)cc1C(=O)Nc1ccc2cn[nH]c2c1
[1]
  AC50: 35.5 µM [rising, single point]

## Cc1ccccc1CN1C[C@@H]2C[C@@H](c3cnc(N4CCOCC4)s3)N3CCC[C@@]23C1=O
[2]
  AC50: 11.2 µM [falling, partial curve, poor fit]
[1]
  AC50: 10 µM [falling, partial curve]

## O=C(/C=C/c1ccccc1)Nc1nnc(-c2ccco2)o1
[1]
  AC50: 35.5 µM [rising, partial curve, poor fit]

## Cc1ccc2ncccc2c1NS(=O)(=O)c1ccccc1
[1]
  AC50: 31.6 µM [rising, single point]

## O=C(COc1ccccc1)Nc1ccncc1
[2]
  AC50: 0.501 µM [falling, full curve, poor fit]
[1]
  AC50: 28.2 µM [falling, partial curve, poor fit]

## COc1ccc(C(=O)NCC(c2ccc(N(C)C)cc2)N2CCCC2)c(OC)c1 (stereo unspecified)
[1]
  AC50: 1.78 µM [rising, single point]

## COc1ccccc1OCC(=O)Nc1nc2c(s1)CC(C)CC2 (stereo unspecified)
[1]
  AC50: 0.0112 µM [falling, full curve]

## CCC(C(=O)NC1CCCCC1)n1c(SCc2ccc(F)cc2)nc2ccncc21 (stereo unspecified)
[1]
  AC50: 8.91 µM [rising, partial curve]

## CC(=O)c1ccc(NS(=O)(=O)c2cc(-c3cc(C)no3)ccc2C)cc1
[1]
  AC50: 0.501 µM [rising, full curve, poor fit]

## O=S(=O)(/C=C/c1ccccc1)N1CCN(c2ccc(F)cc2)CC1
[2]
  AC50: 22.4 µM [rising, single point]
[1]
  AC50: 35.5 µM [rising, single point]

## COc1ccc(N=NC2=C(O)CC(C)(C)CC2=O)cc1
[2]
  AC50: 7.94 µM [rising, partial curve, poor fit]

## Cc1cccc(/N=C/c2c(O)[nH]c3ccccc23)n1
[2]
  AC50: 15.8 µM [rising, single point]

## CCOC(=O)/C(=C\c1ccc([N+](=O)[O-])o1)NC(=O)c1ccccc1
[2]
  AC50: 14.1 µM [falling, single point]
[1]
  AC50: 15.8 µM [falling, partial curve, poor fit]

## Cc1cc(NS(=O)(=O)c2ccc(NC(=O)CSc3nnc(-c4ccco4)n3C)cc2)nc(C)n1
[2]
  AC50: 1.26 µM [rising, full curve, poor fit]
[1]
  AC50: 0.891 µM [rising, full curve, poor fit]

## O=C(CCl)NC(=O)NC12CC3CC(CC(C3)C1)C2
[1]
  AC50: 12.6 µM [rising, partial curve]

## CCCN(CC(=O)c1cc(C)n(C)c1C)S(=O)(=O)c1cccc(C(F)(F)F)c1
[2]
  AC50: 25.1 µM [rising, single point]
[1]
  AC50: 35.5 µM [rising, single point]

## Cc1c(Br)c(C(F)(F)F)nn1CC(=O)NCCCn1ccnc1
[2]
  AC50: 28.2 µM [falling, partial curve, poor fit]
[1]
  AC50: 0.002 µM [falling, full curve, poor fit]

## COCCn1c(C)cc(C(=O)CSc2nnc(C)s2)c1C
[2]
  AC50: 6.31 µM [rising, full curve, poor fit]

## CC(=O)/C(=N\Nc1ccc(C)cc1)N1CCOCC1
[1]
  AC50: 0.0355 µM [falling, full curve, poor fit]

## CCc1ccc(NC(=O)CSC2=Nc3ccccc3C3=NC(CCC(=O)NCCc4ccccc4)C(=O)N23)cc1 (stereo unspecified)
[2]
  AC50: 35.5 µM [falling, single point]
[1]
  AC50: 12.6 µM [falling, partial curve, poor fit]

## O=C(c1ccco1)N1CCN(c2ncnc3c2[nH]c2ccc(Br)cc23)CC1
[2]
  AC50: 35.5 µM [rising, single point]
[1]
  AC50: 35.5 µM [rising, single point]

## CCn1c(COc2ccc(Cl)cc2)nnc1SC1CCc2ccccc2C1=O (stereo unspecified)
[1]
  AC50: 3.98 µM [rising, full curve, poor fit]

## O=S(=O)(c1ccc(N2CCC(c3ccc(Cl)cc3)=N2)cc1)N(CCO)CCO
[2]
  AC50: 15.8 µM [rising, single point]
[1]
  AC50: 35.5 µM [rising, single point]

## CC(=O)c1c(C)[nH]c(C(=O)Nc2nc(-c3ccc(-c4ccccc4)cc3)cs2)c1C
[2]
  AC50: 28.2 µM [falling, single point]
[1]
  AC50: 1.78 µM [rising, partial curve]

## CN1CC(c2ccccc2Cl)C2(COc3ccccc3C2=O)C12C(=O)Nc1ccccc12 (stereo unspecified)
[2]
  AC50: 35.5 µM [falling, single point]
[1]
  AC50: 35.5 µM [falling, single point]

## COc1cccc(C=Nc2ccccc2C(=O)Nc2ccccc2)c1O
[2]
  AC50: 11.2 µM [rising, partial curve]
[1]
  AC50: 17.8 µM [rising, partial curve]

## N#Cc1ccccc1S(=O)(=O)N1CCN(c2cnccn2)CC1
[2]
  AC50: 39.8 µM [rising, partial curve]

## CCS(=O)(=O)c1ncc(N(Cc2ccco2)Cc2sccc2C)c(C(=O)Nc2ccc(C)cc2C)n1
[2]
  AC50: 0.0112 µM [rising, full curve, poor fit]

## Cn1c2ccccc2c2c(C(=O)N3CCN(c4ccc(F)cc4)CC3)cn(C3CCCC3)c(=O)c21
[2]
  AC50: 15.8 µM [rising, single point]
[1]
  AC50: 22.4 µM [rising, single point]

## COc1ccccc1NC(=O)Cc1nn(C)c(=O)c2ccccc12
[1]
  AC50: 3.16 µM [rising, single point]

## CCCCc1nn2c(=O)cc(COC(=O)c3cccc(OC)c3)nc2s1
[2]
  AC50: 0.112 µM [falling, full curve, poor fit]
[1]
  AC50: 0.0501 µM [falling, full curve, poor fit]

## COc1ccc(/C=C2\CC/C(=C\c3ccc(OC)c(OC)c3)C2=O)cc1OC
[1]
  AC50: 5.62 µM [falling, full curve]

## CC(C)c1nnc(NC(=O)CCS(=O)(=O)c2nc(-c3cccs3)cc(C(F)(F)F)n2)s1
[1]
  AC50: 2.51 µM [rising, single point]

## COc1ccc(S(=O)(=O)N2CCC(C(=O)N3CCC(C(N)=O)CC3)CC2)cc1Cl
[2]
  AC50: 11.2 µM [rising, partial curve]
[1]
  AC50: 15.8 µM [rising, single point]

## COc1cccc(C(=O)Nc2cccc(OCc3cc(=O)n4cc(C)ccc4n3)c2)c1
[2]
  AC50: 35.5 µM [falling, single point]
[1]
  AC50: 35.5 µM [falling, partial curve]

## CCCc1cc(-c2[nH]ncc2-c2ccc3c(c2)OCCCO3)c(O)cc1O
[1]
  AC50: 12.6 µM [rising, partial curve]

## O=C(NCc1ccco1)C(c1ccco1)N(CCc1ccccc1)C(=O)Cn1nnc2ccccc21 (stereo unspecified)
[1]
  AC50: 8.91 µM [rising, partial curve, poor fit]

## CCOc1ccc(C(=O)/C=C/c2ccc(SC)cc2)cc1
[2]
  AC50: 12.6 µM [falling, partial curve]
[1]
  AC50: 17.8 µM [falling, partial curve]

## CSc1ccc(CN(C)CC(=O)Nc2ccc(C)cc2Br)cc1
[2]
  AC50: 12.6 µM [rising, partial curve]
[1]
  AC50: 35.5 µM [rising, single point]

## O=C(C1CCN(Cc2ccc(F)cc2)CC1)N(CCc1ccccc1)Cc1ccccc1
[2]
  AC50: 35.5 µM [rising, partial curve, poor fit]
[1]
  AC50: 35.5 µM [rising, single point]

## CC1Nc2nc(N(C)C)[nH]c(=O)c2NC1C (stereo unspecified)
[1]
  AC50: 0.141 µM [rising, full curve, poor fit]

## CCc1cccc(NC(=O)CN2C(=O)CCc3cc(S(=O)(=O)N4CCOCC4)ccc32)c1
[1]
  AC50: 0.631 µM [falling, full curve, poor fit]

## O=C(CN1CC(c2ccccc2)CC1=O)N/N=C/c1cc(Br)ccc1O (stereo unspecified)
[2]
  AC50: 39.8 µM [falling, partial curve, poor fit]

## O=C1C(Cc2ccccc2)C(c2ccccc2)N1c1ccccc1 (stereo unspecified)
[2]
  AC50: 35.5 µM [falling, single point]
[1]
  AC50: 35.5 µM [falling, single point]

## COc1ccc(N2CCN(C(=O)CN(c3cccc(Br)c3)S(C)(=O)=O)CC2)cc1
[1]
  AC50: 35.5 µM [rising, single point]

## O=C(O)c1ccc(-n2cccn2)nc1
[1]
  AC50: 0.0316 µM [falling, full curve, poor fit]

## Cc1ccc2c(c1)c(=O)c(C(=O)c1ccncc1)cn2CC(=O)Nc1c(C)cccc1C
[1]
  AC50: 0.0398 µM [falling, full curve, poor fit]

## Cc1cc(C(=O)NCCN2C(=O)S/C(=C\c3cccs3)C2=O)ccc1[N+](=O)[O-]
[2]
  AC50: 3.55 µM [rising, full curve, poor fit]
